No constants are given. Whether binding was seen depends on the method and setting. Binding seen in cells or lysates may run through a third protein. Some binding calls cover weakened binding; strength is not graded here.
Biological target: PRDM15 (human (endogenous in HCT116)) (UniProt P57071)
Assay: co-IP; lysates of irradiated (8 Gy) HCT116 cells; immunoprecipitation with PRDM15 specific antibody (Pierce Co-Immunoprecipitation Kit), immunoblot for DNA-PKcs, Ku70, Ku80; binding said to increase at 0.5 h after IR

The chains behind the UniProt entries cited, without tags or fusion partners.
UniProt P78527: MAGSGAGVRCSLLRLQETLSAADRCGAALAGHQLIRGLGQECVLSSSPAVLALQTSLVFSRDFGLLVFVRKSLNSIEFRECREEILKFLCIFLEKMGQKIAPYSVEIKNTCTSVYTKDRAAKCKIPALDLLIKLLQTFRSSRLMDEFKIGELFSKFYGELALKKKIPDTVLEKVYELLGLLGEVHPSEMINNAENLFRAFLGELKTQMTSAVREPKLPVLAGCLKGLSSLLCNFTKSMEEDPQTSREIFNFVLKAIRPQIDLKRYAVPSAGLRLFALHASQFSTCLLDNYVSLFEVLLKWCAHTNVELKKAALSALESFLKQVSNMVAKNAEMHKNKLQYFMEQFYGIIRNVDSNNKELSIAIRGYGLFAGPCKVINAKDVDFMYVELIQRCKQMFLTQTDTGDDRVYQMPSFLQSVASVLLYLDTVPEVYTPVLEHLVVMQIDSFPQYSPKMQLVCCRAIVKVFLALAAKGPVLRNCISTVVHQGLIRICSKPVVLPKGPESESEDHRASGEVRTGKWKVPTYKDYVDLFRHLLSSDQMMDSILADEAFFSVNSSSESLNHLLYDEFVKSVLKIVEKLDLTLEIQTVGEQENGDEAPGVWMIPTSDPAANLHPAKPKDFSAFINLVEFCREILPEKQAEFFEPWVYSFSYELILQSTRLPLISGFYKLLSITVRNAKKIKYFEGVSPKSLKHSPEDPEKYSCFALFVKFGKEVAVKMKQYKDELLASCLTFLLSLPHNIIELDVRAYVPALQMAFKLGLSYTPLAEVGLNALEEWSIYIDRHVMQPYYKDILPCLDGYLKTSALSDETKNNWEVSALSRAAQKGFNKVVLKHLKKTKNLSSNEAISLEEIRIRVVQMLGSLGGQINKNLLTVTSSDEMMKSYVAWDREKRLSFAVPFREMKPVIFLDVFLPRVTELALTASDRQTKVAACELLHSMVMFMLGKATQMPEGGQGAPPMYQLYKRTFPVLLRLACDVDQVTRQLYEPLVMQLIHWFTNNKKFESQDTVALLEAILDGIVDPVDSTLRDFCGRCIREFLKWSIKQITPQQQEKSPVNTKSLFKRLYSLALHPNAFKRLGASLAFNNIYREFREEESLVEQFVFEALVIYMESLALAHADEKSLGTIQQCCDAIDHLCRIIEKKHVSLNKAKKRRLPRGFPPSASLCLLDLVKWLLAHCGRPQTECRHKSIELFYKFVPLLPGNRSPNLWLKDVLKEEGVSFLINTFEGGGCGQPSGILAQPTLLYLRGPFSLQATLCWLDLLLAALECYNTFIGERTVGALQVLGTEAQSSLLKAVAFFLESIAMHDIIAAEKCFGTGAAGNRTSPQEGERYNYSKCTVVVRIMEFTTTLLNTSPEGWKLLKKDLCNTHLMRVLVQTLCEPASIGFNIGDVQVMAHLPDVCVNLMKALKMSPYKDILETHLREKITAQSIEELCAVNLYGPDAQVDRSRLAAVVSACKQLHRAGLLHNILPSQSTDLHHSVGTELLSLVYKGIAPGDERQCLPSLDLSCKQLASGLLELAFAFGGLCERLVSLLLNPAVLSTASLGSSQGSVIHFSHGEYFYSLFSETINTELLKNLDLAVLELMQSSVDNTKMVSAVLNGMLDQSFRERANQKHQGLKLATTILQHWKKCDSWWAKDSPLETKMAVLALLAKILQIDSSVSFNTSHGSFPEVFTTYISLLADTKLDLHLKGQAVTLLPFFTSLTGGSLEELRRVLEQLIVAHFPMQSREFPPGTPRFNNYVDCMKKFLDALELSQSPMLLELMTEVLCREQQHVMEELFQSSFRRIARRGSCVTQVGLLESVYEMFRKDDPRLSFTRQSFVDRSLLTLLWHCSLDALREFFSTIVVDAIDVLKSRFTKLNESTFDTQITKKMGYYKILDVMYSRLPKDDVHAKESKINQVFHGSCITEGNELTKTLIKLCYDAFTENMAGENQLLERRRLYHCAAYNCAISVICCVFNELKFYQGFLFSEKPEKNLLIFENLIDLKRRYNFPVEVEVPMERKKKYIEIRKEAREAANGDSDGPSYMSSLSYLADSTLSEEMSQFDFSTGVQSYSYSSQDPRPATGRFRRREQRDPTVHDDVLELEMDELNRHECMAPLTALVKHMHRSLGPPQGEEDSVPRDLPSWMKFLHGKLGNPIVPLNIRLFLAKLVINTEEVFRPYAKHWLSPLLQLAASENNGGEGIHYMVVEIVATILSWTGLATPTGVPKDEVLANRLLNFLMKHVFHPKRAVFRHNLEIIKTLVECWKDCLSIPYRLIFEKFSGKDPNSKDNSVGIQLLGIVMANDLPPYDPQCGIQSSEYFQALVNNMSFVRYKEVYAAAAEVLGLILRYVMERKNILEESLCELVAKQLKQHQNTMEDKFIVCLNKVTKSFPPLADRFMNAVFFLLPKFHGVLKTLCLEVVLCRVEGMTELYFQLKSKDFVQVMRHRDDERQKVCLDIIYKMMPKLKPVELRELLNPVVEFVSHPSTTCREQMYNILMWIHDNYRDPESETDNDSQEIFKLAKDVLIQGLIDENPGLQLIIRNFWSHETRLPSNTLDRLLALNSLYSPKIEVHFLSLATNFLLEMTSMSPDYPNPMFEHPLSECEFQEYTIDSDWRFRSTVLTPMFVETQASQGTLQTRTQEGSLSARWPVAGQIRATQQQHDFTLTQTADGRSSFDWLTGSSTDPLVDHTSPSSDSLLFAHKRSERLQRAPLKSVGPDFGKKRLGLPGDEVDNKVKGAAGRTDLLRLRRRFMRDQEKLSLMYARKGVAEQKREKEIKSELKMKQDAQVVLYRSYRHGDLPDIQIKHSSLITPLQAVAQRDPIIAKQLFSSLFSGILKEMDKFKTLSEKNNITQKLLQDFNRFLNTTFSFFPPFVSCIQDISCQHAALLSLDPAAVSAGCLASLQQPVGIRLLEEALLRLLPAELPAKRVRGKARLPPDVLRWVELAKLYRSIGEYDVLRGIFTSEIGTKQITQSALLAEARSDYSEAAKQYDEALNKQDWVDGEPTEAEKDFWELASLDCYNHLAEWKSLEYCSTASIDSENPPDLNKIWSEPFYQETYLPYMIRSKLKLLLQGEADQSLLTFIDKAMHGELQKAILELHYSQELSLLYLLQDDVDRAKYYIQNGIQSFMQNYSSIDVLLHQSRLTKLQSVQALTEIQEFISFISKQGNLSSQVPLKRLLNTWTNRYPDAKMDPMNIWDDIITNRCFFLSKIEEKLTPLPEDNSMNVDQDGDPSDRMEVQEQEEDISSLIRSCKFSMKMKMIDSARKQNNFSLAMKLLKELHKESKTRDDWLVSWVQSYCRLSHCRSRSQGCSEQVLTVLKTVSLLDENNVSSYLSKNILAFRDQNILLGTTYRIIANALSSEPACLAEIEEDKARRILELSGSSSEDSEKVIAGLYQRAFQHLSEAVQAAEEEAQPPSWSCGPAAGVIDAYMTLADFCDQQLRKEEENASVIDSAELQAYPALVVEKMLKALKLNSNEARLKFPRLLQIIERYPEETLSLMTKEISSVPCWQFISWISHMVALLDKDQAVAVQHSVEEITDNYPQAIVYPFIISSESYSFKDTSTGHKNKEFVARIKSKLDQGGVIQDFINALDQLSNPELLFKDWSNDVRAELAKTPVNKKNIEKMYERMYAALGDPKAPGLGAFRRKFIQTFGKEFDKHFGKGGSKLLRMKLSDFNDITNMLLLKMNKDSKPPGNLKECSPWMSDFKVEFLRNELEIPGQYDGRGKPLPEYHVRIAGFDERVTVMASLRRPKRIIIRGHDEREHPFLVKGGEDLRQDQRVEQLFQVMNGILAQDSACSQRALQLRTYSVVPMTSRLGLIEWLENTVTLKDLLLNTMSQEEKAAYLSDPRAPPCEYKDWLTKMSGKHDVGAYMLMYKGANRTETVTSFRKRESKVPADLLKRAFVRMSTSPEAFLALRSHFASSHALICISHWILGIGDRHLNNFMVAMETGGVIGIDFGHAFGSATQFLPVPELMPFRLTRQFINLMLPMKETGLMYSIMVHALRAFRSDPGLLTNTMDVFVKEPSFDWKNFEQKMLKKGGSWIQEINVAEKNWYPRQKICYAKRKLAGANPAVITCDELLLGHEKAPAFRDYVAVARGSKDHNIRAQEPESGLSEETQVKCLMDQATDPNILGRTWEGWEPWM

binding	Substance
binds	Ku70/Ku80 complex (from UniProt P12956 1-609; P13010 1-732)
binds	DNA-PKcs (from UniProt P78527 1-4128)

Reference: paper PMC9675803
